From ChEMBL document CHEMBL3988442, “University of Dundee, Small-Polar-MMV Screening Library” (2021).

By UniProt entry, the sequences of proteins in these tests, tags left out. Residues count along the entry.
UniProt Q8IDJ8, 1-583: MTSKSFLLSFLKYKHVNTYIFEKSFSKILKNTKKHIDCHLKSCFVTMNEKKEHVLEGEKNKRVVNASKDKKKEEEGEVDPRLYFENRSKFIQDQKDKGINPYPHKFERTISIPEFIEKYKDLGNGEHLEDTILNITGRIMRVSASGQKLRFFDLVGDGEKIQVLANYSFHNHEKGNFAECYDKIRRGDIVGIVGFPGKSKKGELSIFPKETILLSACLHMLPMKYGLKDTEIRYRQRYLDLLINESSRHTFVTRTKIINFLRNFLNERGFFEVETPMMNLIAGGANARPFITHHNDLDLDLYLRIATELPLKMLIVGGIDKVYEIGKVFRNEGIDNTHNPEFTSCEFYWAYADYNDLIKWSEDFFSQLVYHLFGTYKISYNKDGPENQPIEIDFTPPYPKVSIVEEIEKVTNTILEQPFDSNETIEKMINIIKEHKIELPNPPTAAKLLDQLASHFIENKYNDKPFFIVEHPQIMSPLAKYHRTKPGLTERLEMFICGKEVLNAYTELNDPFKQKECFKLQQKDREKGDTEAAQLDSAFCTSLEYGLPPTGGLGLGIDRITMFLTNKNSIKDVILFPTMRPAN
UniProt P9WFT3, whole entry: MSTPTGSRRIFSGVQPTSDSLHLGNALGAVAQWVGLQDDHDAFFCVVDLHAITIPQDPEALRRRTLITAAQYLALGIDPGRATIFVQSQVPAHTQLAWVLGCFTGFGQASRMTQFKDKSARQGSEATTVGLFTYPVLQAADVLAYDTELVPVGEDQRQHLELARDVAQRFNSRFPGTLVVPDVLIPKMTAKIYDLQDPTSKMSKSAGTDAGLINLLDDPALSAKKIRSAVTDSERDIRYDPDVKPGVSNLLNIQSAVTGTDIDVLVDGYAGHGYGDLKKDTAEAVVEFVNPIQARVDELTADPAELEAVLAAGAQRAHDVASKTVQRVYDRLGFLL

Each number is a percent effect as filed. The record does not define 0% and 100%; most values in the screen are far below 50% and negative numbers occur (in some assays of this library far below -100). This is an unselected part of the compounds tested. A dash means the value is not listed here; it may have been measured.

PfKRS1: 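Enzyme assay of the cytosolic lysyl-tRNA synthetase in 384-well plates, read by luminescence. Target: Lysine-tRNA ligase, Plasmodium falciparum 3D7 (UniProt Q8IDJ8). Tested at 30 µM. Higher reads as stronger inhibition, judged from the few compounds that gave an IC50. Size under these conditions: about 69,000 compounds, about 49 of them at 50% or above in at least one test.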
MtTrpRS: 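Enzyme assay of tryptophanyl-tRNA synthetase; the read-out is not stated. Target: Tryptophan-tRNA ligase, Mycobacterium tuberculosis (UniProt P9WFT3). Concentration: 10 µM. Direction is not recorded; retested compounds ran higher, which suggests that high means inhibition. Of about 65,000 compounds tested this way, about 64 (0.098%) reached 50% or more in at least one test.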

Compound | PfKRS1 | MtTrpRS
O=C(C[S+]([O-])Cc1c(F)cccc1Cl)N1CCc2sccc2C1 (stereo not given) | 7.678% | 3.469%
CSC(C)(C)CNC(=O)NC1CCN(CC(F)F)CC1 | 3.294% | -2.534%
CCOc1cccc2c1OCC(C(=O)NS(=O)(=O)c1c(C)noc1C)=C2 | -0.1653% | -1.089%
COc1nc2ccn(CCNc3cc(C)ccn3)c(=O)c2cc1C#N | -1.648% | -0.6717%
CCn1cc(NC(=O)NCCc2ccc3c(c2)OCO3)cn1 | 0.201% | -5.622%
CC(=O)NC(C)CC(=O)NCc1cccnc1Oc1ccccc1C (stereo not given) | 10.03% | -3.223%
Cc1cc(C(=O)NCCc2nc3c(s2)CCCC3)n(C)n1 | 0.4459% | -1.032%
Cc1noc(C(C)C)c1C(=O)NCCCN1CCCC1 | 5.057% | 2.568%
CCc1ccccc1OCCN(C)C(=O)CCN1CCCCO1 | -2.115% | 0.7988%
COCCn1ccnc1CN(Cc1ccccn1)CC(C)C | 5.873% | -2.991%
CCn1ccnc1C1CCCN(C(=O)c2sc(C)nc2C)C1 (stereo not given) | 3.567% | -1.522%
Cc1cc(C(F)F)nn1CC(=O)NCc1nccn1C | 2.703% | 0.5875%
Cc1cc(C)n(CC2CCCCN2CCCS(N)(=O)=O)n1 (stereo not given) | 3.601% | -1.436%
CN(Cc1nnc(C2CC2)n1C)S(=O)(=O)Cc1ccccc1F | 5.195% | -0.8862%
COCCn1ccnc1CN1CCc2[nH]cnc2C1c1ccccn1 (stereo not given) | 6.521% | 5.466%
CN(C(=O)c1cccc(C#N)c1)c1nnc(C2CCOC2)s1 (stereo not given) | 1.502% | 1.371%
CCCS(=O)(=O)N1CCC2(CC(C(=O)NCc3cccnc3)=NO2)C1 (stereo not given) | 3.945% | -1.627%
CC(CNC(=O)N1CCN(CC(F)F)CC1)Cc1cccs1 (stereo not given) | 6.708% | 0.5629%
Cc1ccc(CN2CCCn3nnc(COCCN(C)C)c3C2)s1 | -0.01097% | -8.719%
COc1cc(-c2nc(N)n[nH]2)cc(OC)c1OC | 1.441% | -0.712%
CC(=O)c1nn(-c2cccc(Cl)c2)c(C)c1C(C)=O | -0.07253% | -0.3079%
Cc1cnc(CN(C)C2CCN(Cc3cnc(C)s3)C2)o1 (stereo not given) | 2.525% | -0.4575%
CCS(=O)(=O)N1CC[C@H]2OCC[C@@]2(C(=O)NC)C1 | 0.8007% | 1.592%
COCCCNCc1cc(O)c2cc(C)cc(C)c2n1 | 3.246% | -1.351%
c1cncc(-n2cnnc2CC2CCNCC2)c1 | -2.153% | 1.544%
Cc1ccc(CN2CC[C@H]3[C@H](CO[C@H]3CN(C)C)C2)o1 | 7.623% | -5.805%
Cn1cc(CN2CCCN(C(=O)c3ccc4ccccc4n3)CC2)cn1 | 0.6091% | -3.476%
O=C(COc1ccc(Cl)cc1)N1CCOCC1c1ncon1 (stereo not given) | 2.562% | 3.955%
Cc1nc(C2CN(Cc3ccc(F)cc3Br)CCO2)no1 (stereo not given) | -2.215% | -1.646%
NC(=O)N1CCCC(C(=O)NCCOc2ccc3c(c2)OCO3)C1 (stereo not given) | 4.158% | 13.3%
CC(C)C(C)(C#N)NC(=O)Cn1nnc(-c2cc3ccccc3o2)n1 (stereo not given) | 3.174% | 10.04%
CCN(C(=O)CN(Cc1cccc(O)c1)C1CCC(O)CC1)C1CC1 (stereo not given) | 2.398% | -9.35%
CC(=O)N1CCC[C@@H](NCc2cccc(F)c2)[C@@H]1c1ccc(C)s1 | -0.03039% | -6.588%
Cc1nc(NC(=O)N(C)Cc2ccoc2)nn1C | -0.6673% | 2.344%
CC(C)CC(NC(=O)c1ccc[nH]1)C(=O)N1CCC(CO)CC1 (stereo not given) | 0.8791% | -1.242%
O=C(C1CC1)N1CC2(CCNCC2)c2cc(F)ccc21 | 4.474% | -0.2425%
Cc1nn(C)cc1CC(C#N)C(=O)Nc1cccc(O)c1 (stereo not given) | 0.4835% | -0.6159%
COc1ccc(F)cc1C(=O)Nc1nnc(C)s1 | 0.723% | 9.235%
COc1ccc(COCC(O)CNC(=O)c2ccc(C)c(F)c2)cc1 (stereo not given) | 1.998% | -5.623%
Cc1nccn1CCC1CCCCN1C(=O)c1ccc(N(C)C)cc1 (stereo not given) | 2.113% | -4.931%
Cc1n[nH]c(C)c1CCCN(C)c1cc(N(C)C)ncn1 | -1.546% | -2.703%
CC(NC(=O)C1CCN(C(=O)C2CC2)CC1)c1nncn1C(C)C (stereo not given) | -1.499% | -6.338%
Cc1c[nH]nc1C1CCN(S(=O)(=O)N(C)C)C1 (stereo not given) | 0.6617% | -
CCSCCNc1nc(-c2ccccn2)nc2c1c(C)nn2C | 0.4907% | -6.49%
Cc1ccc(C(=O)N2CCOCC2)cc1NCc1ccsc1 | -0.6545% | 1.729%
CCn1cc(C(=O)n2nc(C)cc2C)c(S(=O)(=O)N2CCCCC2)n1 | 5.723% | -1.685%
CCC(C(=O)NC1CCN(S(C)(=O)=O)CC1)n1cccn1 (stereo not given) | 3.373% | 0.3276%
CCN(CCO)C(=O)C1CCC(=O)N(CCc2cccc(F)c2)C1 (stereo not given) | -1.032% | 1.982%
O=C(CCc1nc(Cl)n[nH]1)N1C[C@@H](CN2CCCCC2)[C@@H](CO)C1 | 2.25% | -4.143%
Cc1cccc(CN2CCCC(c3nccs3)C2)n1 (stereo not given) | 0.7118% | -4.818%
COC(=O)N1CCC(Nc2ccc(Cl)c(C#N)n2)CC1 | 8.138% | -3.219%

Once more, the final 3:

- O=C(CCc1nc(Cl)n[nH]1)N1C[C@@H](CN2CCCCC2)[C@@H](CO)C1 : PfKRS1: 2.25%; MtTrpRS: -4.143%
- Cc1cccc(CN2CCCC(c3nccs3)C2)n1 (stereo not given) : PfKRS1: 0.7118%; MtTrpRS: -4.818%
- COC(=O)N1CCC(Nc2ccc(Cl)c(C#N)n2)CC1 : PfKRS1: 8.138%; MtTrpRS: -3.219%